What was measured:
live HeLa cells = test: Quantification of SRS laser uncaging; format: cell-based; settings: 20 µM, 30 minutes; OPO 25 mW, Stokes 60 mW; 80 µs/pixel; 405 nm activation = 100%
[1] = Photoactivation (UV-uncaging) monitored by time-series spontaneous Raman spectra; format: physicochemical; settings: handheld UV-lamp (254 nm and 365 nm) or 405 nm CW laser
Procedure: The 365 nm UV light used to activate cyclopropenones comes from a UV handlamp (Analytik Jena UVP EL Series Lamp, UVLS-24, 4 Watt, 2 UV 254/365 nm, typically used for TLC monitoring in organic synthesis). The power of 365 nm UV of this handlamp was measured to be 15 mW/cm2 on samples.
Next, the photo-uncaging kinetics for both 1-cyclo (1) and 2-cyclo (3) were compared. […] With 365 nm lamp illumination, the characteristic peaks of cyclopropenones (~1860 cm^-1) continue to drop while the alkyne peaks (2226 cm^-1) gradually increase for both molecules (FIG. 1D). […] The progression of the UV-activation reactions could also be confirmed by the change in the corresponding absorption spectra (FIG. 6).

Row | SMILES | Average frame activation by SRS imaging lasers (live HeLa cells) | photo-uncaging / activated Raman signals after illumination [1]
1 | Cc1cc(C)c(-c2c(-c3c(C)cc(OCCC[P+](c4ccccc4)(c4ccccc4)c4ccccc4)cc3C)c2=O)c(C)c1 [Me-Mito (12)] | 1.4% | –
2 | O=c1c(C#Cc2ccccc2)c(C#Cc2ccccc2)c1=O [3-cyclo (5), 3,4-Bis(phenylethynyl)-3-cyclobutene-1,2-dione] | – | no activated Raman signals
3 | O=c1c(-c2ccccc2)c1-c1ccccc1 [1-cyclo (1), diphenylcyclopropenone] | – | effectively uncage
4 | O=c1c(C#Cc2ccccc2)c1-c1ccccc1 [2-cyclo (3), 2-phenyl-3-(phenylethynyl)cycloprop-2-en-1-one] | – | effectively uncage
